Assay [1] deals with MUC1* on the cell surface of MUC1-positive breast cancer cells (ZR-75-1, T47D) (UniProt P15941). Description: FACS on ZR-75-1 cells, anti-Penta-His Alexa 488 detection.
For assay [2] the target is unchanged. Description: flow cytometry on ZR-75-1 cells, anti-penta-His Alexa 488 detection. (In flow cytometry, cells or beads pass a laser one at a time.)

By UniProt entry, the sequences of proteins in these tests, tags left out. Where a name states a change or a piece, a line headed by the entry shows the natural chain unless it says otherwise. Residues count along the entry.
UniProt P15941, residues 24-1255: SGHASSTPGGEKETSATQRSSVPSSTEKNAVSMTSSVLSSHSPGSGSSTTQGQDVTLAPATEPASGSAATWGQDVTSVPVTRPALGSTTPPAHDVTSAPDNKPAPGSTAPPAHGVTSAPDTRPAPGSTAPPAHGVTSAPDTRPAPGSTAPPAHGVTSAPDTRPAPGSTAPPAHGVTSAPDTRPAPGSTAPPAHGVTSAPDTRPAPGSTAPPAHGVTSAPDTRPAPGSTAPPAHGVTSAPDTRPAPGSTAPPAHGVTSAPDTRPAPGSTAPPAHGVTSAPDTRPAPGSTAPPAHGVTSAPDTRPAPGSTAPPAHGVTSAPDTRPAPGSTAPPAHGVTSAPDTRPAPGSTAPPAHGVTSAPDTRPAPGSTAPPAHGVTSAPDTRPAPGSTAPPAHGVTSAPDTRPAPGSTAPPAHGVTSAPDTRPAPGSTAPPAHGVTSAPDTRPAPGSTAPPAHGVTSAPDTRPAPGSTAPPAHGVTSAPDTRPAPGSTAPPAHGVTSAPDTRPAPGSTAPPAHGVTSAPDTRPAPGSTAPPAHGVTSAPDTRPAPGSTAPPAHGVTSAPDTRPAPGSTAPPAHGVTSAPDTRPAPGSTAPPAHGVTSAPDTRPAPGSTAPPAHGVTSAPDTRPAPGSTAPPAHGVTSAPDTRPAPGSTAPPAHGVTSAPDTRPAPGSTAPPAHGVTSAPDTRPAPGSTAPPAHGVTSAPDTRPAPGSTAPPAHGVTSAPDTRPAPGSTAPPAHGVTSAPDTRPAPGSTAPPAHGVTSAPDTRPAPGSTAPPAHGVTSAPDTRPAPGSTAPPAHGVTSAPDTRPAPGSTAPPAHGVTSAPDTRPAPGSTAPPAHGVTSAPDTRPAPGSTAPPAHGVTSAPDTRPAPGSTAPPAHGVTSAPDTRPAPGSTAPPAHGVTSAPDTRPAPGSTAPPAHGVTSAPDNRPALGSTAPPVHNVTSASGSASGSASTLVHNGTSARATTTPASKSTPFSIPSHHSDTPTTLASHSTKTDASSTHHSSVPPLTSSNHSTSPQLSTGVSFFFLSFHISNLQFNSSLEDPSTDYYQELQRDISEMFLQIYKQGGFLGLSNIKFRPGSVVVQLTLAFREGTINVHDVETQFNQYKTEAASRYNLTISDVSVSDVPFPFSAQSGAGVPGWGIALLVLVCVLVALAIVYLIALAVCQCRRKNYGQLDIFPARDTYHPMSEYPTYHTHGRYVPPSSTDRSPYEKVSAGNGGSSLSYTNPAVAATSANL

These are yes or no findings as the source states them, for the method shown. Some results given as binding are weak or reduced against the parent protein; the word gives no strength. Where a sequence is shown, tags or fusion partners need not be part of it.

B1: MIN-C2 scFv (heavy chain variable-linker-light chain variable, C-terminal poly-histidine tag) (scFv)
scFv: EVQLEESGGGLVKPGGSLKLSCAASGFTFSGYAMSWVRQTPEKRLEWVATISSGGTYIYYPDSVKGRFTISRDNAKNTLYLQMSSLRSEDTAMYYCARLGGDNYYEYFDVWGAGTTVTVSSAKTTPPSVYGGGGSGGGGSGGGGSDIVITQSTASLGVSLGQRATISCRASKSVSTSGYSYMHWYQQRPGQPPKLLIYLASNLESGVPARFSGSGSGTDFTLNIHPVEEEDAATYYCQHSRELPFTFGGGTKLEIKRADAAPTVSVDHHHHHH
Regarding B1, the binding result in assay [1] and in assay [2] was “binds” each time.

The values above are taken from patent publication US20170204191A1.
